From article PMC6599211, “Structural basis of TFIIH activation for nucleotide excision repair” (Nature Communications, 2019)
No constants are given. Whether binding was seen depends on the method and setting. Some results given as binding are weak or reduced against the parent protein; the word gives no strength. Each block holds one molecule with its values, some of them ahead of it.

By UniProt entry, the sequences of proteins in these tests, tags left out.
UniProt P19447: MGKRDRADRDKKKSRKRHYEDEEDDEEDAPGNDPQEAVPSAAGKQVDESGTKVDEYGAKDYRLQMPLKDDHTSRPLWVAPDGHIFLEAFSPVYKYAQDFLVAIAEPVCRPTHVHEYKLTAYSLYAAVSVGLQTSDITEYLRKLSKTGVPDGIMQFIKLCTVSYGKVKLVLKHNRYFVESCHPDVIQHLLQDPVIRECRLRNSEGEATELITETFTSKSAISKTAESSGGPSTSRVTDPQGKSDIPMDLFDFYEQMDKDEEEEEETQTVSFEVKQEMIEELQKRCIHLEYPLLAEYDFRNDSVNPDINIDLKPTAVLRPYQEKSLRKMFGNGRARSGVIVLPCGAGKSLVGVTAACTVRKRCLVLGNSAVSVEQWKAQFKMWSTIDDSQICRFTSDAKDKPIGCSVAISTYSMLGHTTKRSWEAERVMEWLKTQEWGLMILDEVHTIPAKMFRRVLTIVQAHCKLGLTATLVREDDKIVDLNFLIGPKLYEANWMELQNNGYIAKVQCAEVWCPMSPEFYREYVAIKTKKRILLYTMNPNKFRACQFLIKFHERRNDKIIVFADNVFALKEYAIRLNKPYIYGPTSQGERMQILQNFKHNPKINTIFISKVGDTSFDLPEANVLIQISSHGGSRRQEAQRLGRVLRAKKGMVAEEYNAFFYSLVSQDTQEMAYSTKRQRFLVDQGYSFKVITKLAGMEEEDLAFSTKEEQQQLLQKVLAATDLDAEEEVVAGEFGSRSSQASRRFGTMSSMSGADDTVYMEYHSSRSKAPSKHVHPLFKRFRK
UniProt Q6ZYL4: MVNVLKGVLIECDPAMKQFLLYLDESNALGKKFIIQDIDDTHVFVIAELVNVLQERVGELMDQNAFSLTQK

How the values were obtained:
XPD (human) = target: T1, XPD (human) (UniProt P18074); assay: co-purification; subunits co-expressed in Hi5 cells; HisTrap, amylose resin (MBP on XPD), TEV cleavage, DEAE/heparin, Superose 6; 400 mM KCl, pH 7.0
T1 sequence: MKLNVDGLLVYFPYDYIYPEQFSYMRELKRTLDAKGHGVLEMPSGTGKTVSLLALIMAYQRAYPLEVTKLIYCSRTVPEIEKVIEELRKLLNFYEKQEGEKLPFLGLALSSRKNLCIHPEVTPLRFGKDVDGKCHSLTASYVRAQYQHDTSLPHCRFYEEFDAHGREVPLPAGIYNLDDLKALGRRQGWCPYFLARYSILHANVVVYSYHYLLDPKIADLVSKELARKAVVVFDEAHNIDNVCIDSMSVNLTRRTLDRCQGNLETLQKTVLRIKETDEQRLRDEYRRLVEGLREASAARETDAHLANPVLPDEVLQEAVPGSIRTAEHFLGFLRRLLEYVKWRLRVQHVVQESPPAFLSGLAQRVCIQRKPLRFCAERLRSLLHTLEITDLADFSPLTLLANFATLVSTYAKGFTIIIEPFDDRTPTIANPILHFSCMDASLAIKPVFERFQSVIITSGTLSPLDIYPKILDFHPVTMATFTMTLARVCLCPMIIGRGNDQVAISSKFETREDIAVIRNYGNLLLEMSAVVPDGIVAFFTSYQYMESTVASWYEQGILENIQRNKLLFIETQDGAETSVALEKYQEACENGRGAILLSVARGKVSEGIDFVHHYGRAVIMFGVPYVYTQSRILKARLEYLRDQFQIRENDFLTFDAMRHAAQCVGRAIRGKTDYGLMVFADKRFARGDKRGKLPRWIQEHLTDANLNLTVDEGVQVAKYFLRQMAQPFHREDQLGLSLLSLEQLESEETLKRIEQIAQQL

p52 (human) = target: T2, p52 (human) (UniProt Q92759); assay: cross-linking; core TFIIH, XPA, XPG and bifurcated DNA scaffold mixed 1:2:2:1.5, 150 mM KCl, pH 7.5, purified on Superose 6 increase; 2 mM BS3, 30 min, 30 °C; cross-linked peptides identified by mass spectrometry (pLink, FDR 1%); both purified
T2 sequence: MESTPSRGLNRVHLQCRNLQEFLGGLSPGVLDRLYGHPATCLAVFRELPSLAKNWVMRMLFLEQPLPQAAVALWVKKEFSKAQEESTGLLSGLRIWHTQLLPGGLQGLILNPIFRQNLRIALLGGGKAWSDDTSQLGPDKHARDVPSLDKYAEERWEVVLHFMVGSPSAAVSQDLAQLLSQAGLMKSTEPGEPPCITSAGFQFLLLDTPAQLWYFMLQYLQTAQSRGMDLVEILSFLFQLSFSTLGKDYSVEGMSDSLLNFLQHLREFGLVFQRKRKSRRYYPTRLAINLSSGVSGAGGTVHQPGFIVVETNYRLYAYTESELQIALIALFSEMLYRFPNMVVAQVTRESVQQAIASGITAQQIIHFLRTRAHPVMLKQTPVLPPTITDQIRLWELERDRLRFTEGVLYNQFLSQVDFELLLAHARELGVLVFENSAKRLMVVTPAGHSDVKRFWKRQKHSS

XPB (human) = XPB (human) (UniProt P19447); assay: as above

- binding (XPD (human)): binds
Molecule: TTDA/p8 (from UniProt Q6ZYL4 1-71)

- binding (p52 (human)): binds
- binding (XPB (human)): binds
B1: XPG (natural protein, human, UniProt P28715 1-1186, looked up)
chain: MGVQGLWKLLECSGRQVSPEALEGKILAVDISIWLNQALKGVRDRHGNSIENPHLLTLFHRLCKLLFFRIRPIFVFDGDAPLLKKQTLVKRRQRKDLASSDSRKTTEKLLKTFLKRQAIKTAFRSKRDEALPSLTQVRRENDLYVLPPLQEEEKHSSEEEDEKEWQERMNQKQALQEEFFHNPQAIDIESEDFSSLPPEVKHEILTDMKEFTKRRRTLFEAMPEESDDFSQYQLKGLLKKNYLNQHIEHVQKEMNQQHSGHIRRQYEDEGGFLKEVESRRVVSEDTSHYILIKGIQAKTVAEVDSESLPSSSKMHGMSFDVKSSPCEKLKTEKEPDATPPSPRTLLAMQAALLGSSSEEELESENRRQARGRNAPAAVDEGSISPRTLSAIKRALDDDEDVKVCAGDDVQTGGPGAEEMRINSSTENSDEGLKVRDGKGIPFTATLASSSVNSAEEHVASTNEGREPTDSVPKEQMSLVHVGTEAFPISDESMIKDRKDRLPLESAVVRHSDAPGLPNGRELTPASPTCTNSVSKNETHAEVLEQQNELCPYESKFDSSLLSSDDETKCKPNSASEVIGPVSLQETSSIVSVPSEAVDNVENVVSFNAKEHENFLETIQEQQTTESAGQDLISIPKAVEPMEIDSEESESDGSFIEVQSVISDEELQAEFPETSKPPSEQGEEELVGTREGEAPAESESLLRDNSERDDVDGEPQEAEKDAEDSLHEWQDINLEELETLESNLLAQQNSLKAQKQQQERIAATVTGQMFLESQELLRLFGIPYIQAPMEAEAQCAILDLTDQTSGTITDDSDIWLFGARHVYRNFFNKNKFVEYYQYVDFHNQLGLDRNKLINLAYLLGSDYTEGIPTVGCVTAMEILNEFPGHGLEPLLKFSEWWHEAQKNPKIRPNPHDTKVKKKLRTLQLTPGFPNPAVAEAYLKPVVDDSKGSFLWGKPDLDKIREFCQRYFGWNRTKTDESLFPVLKQLDAQQTQLRIDSFFRLAQQEKEDAKRIKSQRLNRAVTCMLRKEKEAAASEIEAVSVAMEKEFELLDKAKGKTQKRGITNTLEESSSLKRKRLSDSKGKNTCGGFLGETCLSESSDGSSSEDAESSSLMNVQRRTAAKEPKTSASDSQNSVKEAPVKNGGATTSSSSDSDDDGGKEKMVLVTARSVFGKKRRKLRRARGRKRKT

- binding (XPD (human)): binds
B2: p52 (protein, UniProt Q92759 1-462)
chain: T2 sequence
